The values below come from the supplement of paper PMC3682954.

The test has as its system RAW 264.7. Put plainly: cell viability (MTT) relative to vehicle control; higher = more viable cells. The conditions noted are these: stimulus: HMGB1 5 ug/ml, 18 h.
The mark [1] stands for this setting: compound concentration: 1 ug/ml.

A word on the cell viability: it is a read-out of living cells in per cent, often relative to untreated cells.

Counter-ions that a name gives are not always drawn. ± gives the standard deviation of the averaged measurements. This is one part of the list. Single values are uncertain, as repeats are few or missing.

As for `COc1cccc(OC)c1OCCNCC1CSc2ccccc2O1` (stereo unspecified) [Benoxathian hydrochloride], under “compound concentration: 3 uM”, the cell viability stood at 96.1%.

On to `CCCCS(=N)(=O)CCC(N)C(=O)O` [L-Buthionine-sulfoximine], for which the cell viability (compound concentration: 3 uM) is 93.8%. For `CCCCCCCCCCCCCCCCCCNC(=O)OCC(COP(=O)([O-])OCC[n+]1ccsc1)OC` (stereo unspecified), the cell viability (compound concentration: 3 uM) was determined as 110%.

On to `Nc1ccc(C(=O)O)c(O)c1` [4-Aminosalicylic acid], for which, under “compound concentration: 3 uM”, the cell viability came to 95.9%. Still for that read-out and setting: to `Nc1ccc(C(=O)O)c(O)c1` belongs 106%; to `Nc1ccc(C(=O)O)c(O)c1` [4-aminosalicylic acid], 92.4%; to `O=C1Nc2ccc(Cl)cc2[C@@](C#CC2CC2)(C(F)(F)F)O1` [Efavirenz], 109 ± 13%. The same measure, in the same setting: to `O=C1Nc2ccc(Cl)cc2[C@@](C#CC2CC2)(C(F)(F)F)O1` belongs 93.8%; to `Clc1ccc(C(c2ccccc2Cl)C(Cl)Cl)cc1` (stereo unspecified) [1-(2-Chlorophenyl)-1-(4-chlorophenyl)-2,2-dichloroethane], 102%.

With `Clc1ccc(C(c2ccccc2Cl)C(Cl)Cl)cc1` (stereo unspecified), the cell viability (compound concentration: 3 uM) was 106%. `Clc1ccc(C(c2ccccc2Cl)C(Cl)Cl)cc1` (stereo unspecified) [Mitotane]: the cell viability (compound concentration: 3 uM) was found to be 130%. Same read-out and setting: to `O=C1O[C@H]([C@@H](O)CO)C(O)=C1O` [Ascorbic acid] belongs 102%; to `O=C1O[C@H]([C@@H](O)CO)C(O)=C1O`, 107 ± 11%. Consider `O=C1O[C@H]([C@@H](O)CO)C(O)=C1O` [L(+)-Ascorbic acid], for which the cell viability under setting [1] came to 98.4%.

On to `OC[C@H]1O[C@@H](Oc2cccc3cccnc23)[C@H](O)[C@@H](O)[C@@H]1O` [8-Hydroxyquinoline beta-D-glucopyranoside], for which the cell viability under setting [1] amounted to 98.7%. For `CC(=O)Nc1ccc(S(=O)(=O)c2ccc(NC(C)=O)cc2)cc1`, for the setting “compound concentration: 3 uM”, the cell viability was 111%. The same measure, in the same setting: to `OCCc1ccccc1` belongs 101%. Same read-out and setting: to `O=C(c1ccc(F)cc1)C1CCN(CCn2c(=S)[nH]c3ccccc3c2=O)CC1` [Altanserin] belongs 101%.

As to `O=C(O)c1ccccc1Nc1cccc(C(F)(F)F)c1`, for the setting “compound concentration: 3 uM”, the cell viability is 107%. Same read-out and setting: to `O=C(O)c1ccccc1Nc1cccc(C(F)(F)F)c1` [Flufenamic acid] belongs 99.9 ± 17%. Still for that read-out and setting: to `CC[N+](C)(CC)CCC[n+]1c(-c2ccccc2)c2cc(N)ccc2c2ccc(N)cc21` [Propidium iodide] belongs 144%; to `Nc1[nH]c(=O)ncc1F`, 100%.

Turning to `CCC(=O)O[C@]1(C(=O)SCF)[C@H](C)C[C@H]2[C@@H]3C[C@H](F)C4=CC(=O)C=C[C@]4(C)[C@@]3(F)[C@@H](O)C[C@@]21C` [Fluticasone propionate], the cell viability (compound concentration: 3 uM) is 77.5%. On the same count and under the same terms, to `CCC(=O)O[C@]1(C(=O)SCF)[C@H](C)C[C@H]2[C@@H]3C[C@H](F)C4=CC(=O)C=C[C@]4(C)[C@@]3(F)[C@@H](O)C[C@@]21C` belongs 93.4%; to `Nc1ccc(/N=N/c2ccccc2)c(N)n1` [Phenazopyridine hydrochloride], 127%. Still for that read-out and setting: to `Nc1ccc(/N=N/c2ccccc2)c(N)n1` belongs 106%. On the same count and under the same terms, to `CN(C)CCOC(=O)C(c1ccccc1)C1(O)CCCC1` (stereo unspecified) [Cyclopentolate hydrochloride] belongs 92.3%; to `CN(C)CCOC(=O)C(c1ccccc1)C1(O)CCCC1` (stereo unspecified), 98.6%; to `CCc1cc(Cl)c(OC)c(C(=O)NC[C@@H]2CCCN2CC)c1O`, 111%. As for `CC1=CC(=O)C2=C(C)CC[C@@H]3[C@H](OC(=O)[C@H]3C)[C@@H]12` [Leucomisine], the cell viability (compound concentration: 3 uM) is 106%. Regarding `COC(=O)C1=CO[C@@H](C)[C@@H]2CN3CCc4c([nH]c5cc(OC)c(OC)cc45)[C@H]3C[C@H]12` [Reserpiline], the cell viability under setting [1] is 97.5%.

Regarding `Nc1nc(/C(=C/CC(=O)O)C(=O)N[C@@H]2C(=O)N3C(C(=O)O)=CCS[C@H]23)cs1`, where the note is “compound concentration: 3 uM”, the cell viability is 104%.

Regarding `NCCCS(=O)(=O)O` [3-Amino-1-propanesulfonic acid sodium], the cell viability (compound concentration: 3 uM) was found to be 105%. Regarding `OCCN1CCN(CC/C=C2/c3ccccc3Sc3ccc(Cl)cc32)CC1` [Zuclopenthixol hydrochloride], the cell viability (compound concentration: 3 uM) turned out to be 86.2%. `C=C1CC[C@H](O)C/C1=C/C=C1\CCC[C@]2(C)[C@@H]([C@H](C)/C=C/[C@H](C)C(C)C)CC[C@@H]12`: the cell viability (compound concentration: 3 uM) was determined as 112%. Still for that read-out and setting: to `Nc1nc(N)c2nc(-c3ccccc3)c(N)nc2n1` [Triamterene] belongs 108 ± 6.9%. On the same count and under the same terms, to `Nc1nc(N)c2nc(-c3ccccc3)c(N)nc2n1` belongs 108%; to `C=CC[N+]1([C@H]2C[C@H]3[C@@H]4CC[C@H]5C[C@H](O)[C@@H](N6CCOCC6)C[C@]5(C)[C@H]4CC[C@]3(C)[C@H]2OC(C)=O)CCCC1` [Rocuronium], 108%. Still for that read-out and setting: to `CC(C)(C)NC(=O)[C@H]1CC[C@H]2[C@@H]3CC[C@H]4NC(=O)C=C[C@]4(C)[C@H]3CC[C@]12C` [Finasteride] belongs 104 ± 3.7%; to `CC(C)(C)NC(=O)[C@H]1CC[C@H]2[C@@H]3CC[C@H]4NC(=O)C=C[C@]4(C)[C@H]3CC[C@]12C`, 105 ± 14%. As to `CC(C)(C)CC(C)(C)c1ccc(OCCOCC[N+](C)(C)Cc2ccccc2)cc1` [Benzethonium chloride], the cell viability (compound concentration: 3 uM) was determined as 94.1%. Consider `CC(C)(C)CC(C)(C)c1ccc(OCCOCC[N+](C)(C)Cc2ccccc2)cc1`, for which, where the note is “compound concentration: 3 uM”, the cell viability was determined as 84.8%. Take `Cn1nnc2c(C(N)=O)ncn2c1=O`: the cell viability (compound concentration: 3 uM) was 97%.

With `Cn1nnc2c(C(N)=O)ncn2c1=O` [Temozolomide], the cell viability (compound concentration: 3 uM) was 100 ± 5%. On to `COc1ccc(CCn2nnnc2C2(c3ccc(C)cc3)CC2)cc1` [Mephetyl tetrazole], for which, under “compound concentration: 3 uM”, the cell viability was 105%. As for `C=C1C(=O)O[C@H]2[C@H]1CC/C(C)=C/CC[C@@]1(C)O[C@@H]21` [Parthenolide], the cell viability worked out at 102% under setting [1] and 98.3 ± 8.3% (compound concentration: 3 uM). On to `CCCCOc1ccc(C(=O)CCN2CCCCC2)cc1`, for which the cell viability (compound concentration: 3 uM) is 100%. Turning to `CCCCOc1ccc(C(=O)CCN2CCCCC2)cc1` [Dyclonine hydrochloride], the cell viability (compound concentration: 3 uM) turned out to be 109%. Still for that read-out and setting: to `COC(=O)C(C)(N)Cc1ccc(O)cc1` (racemic) [alpha-Methyl-DL-tyrosine methyl ester hydrochloride] belongs 106%. In the case of `COC(=O)[C@H]1[C@H]2C[C@H]3c4[nH]c5ccccc5c4CCN3C[C@H]2CC[C@@H]1O` [Rauwolscine hydrochloride], the cell viability by setting is: under setting [1], 96.2%; (compound concentration: 3 uM) 123%. On to `CC(CN(C)C)CN1c2ccccc2CCc2ccccc21` (stereo unspecified), for which the cell viability (compound concentration: 3 uM) was determined as 102%.

In the case of `CC(CN(C)C)CN1c2ccccc2CCc2ccccc21` (stereo unspecified) [Trimipramine maleate salt], the cell viability (compound concentration: 3 uM) is 91%.

As for `CC(CN(C)C)CN1c2ccccc2CCc2ccccc21` (stereo unspecified) [Trimipramine maleate], the cell viability (compound concentration: 3 uM) came to 109%. On the same count and under the same terms, to `OC(CCN1CCCC1)(c1ccccc1)C1CCCCC1` (stereo unspecified) belongs 102%; to `OC(CCN1CCCC1)(c1ccccc1)C1CCCCC1` (stereo unspecified) [Procyclidine hydrochloride], 87.4%. Still for that read-out and setting: to `CC(C)NCC(O)COc1cccc2[nH]ccc12` (stereo unspecified) [Pindolol] belongs 108 ± 2.6%; to `CC(C)NCC(O)COc1cccc2[nH]ccc12` (stereo unspecified), 111%. Same read-out and setting: to `C[N+](C)(C)C[C@H](O)CC(=O)[O-]` belongs 111%; to `CC(C)C(=O)c1c(C(C)C)nn2ccccc12` [Ibudilast], 101 ± 1.2%. As to `C[C@H]1[C@H]2CC[C@H]3[C@@H]4CC=C5C[C@@H](N(C)C)CC[C@]5(C)[C@H]4CC[C@]23CN1C` [Conessine], the cell viability under setting [1] amounted to 97.3%. Turning to `Nc1ncnc2c1ncn2[C@@H]1O[C@@H]2COP(=O)(O)O[C@H]2[C@H]1O` [Adenosine 3',5'-cyclic monophosphate], where the note is “compound concentration: 3 uM”, the cell viability was determined as 113%. Consider `CC1=C(/C=C/C(C)=C/C=C/C(C)=C/C=C/C=C(C)/C=C/C=C(C)/C=C/C(=O)[C@]2(C)C[C@@H](O)CC2(C)C)C(C)(C)C[C@H](O)C1`, for which, for the setting “compound concentration: 3 uM”, the cell viability was 130%. Regarding `NC(N)=NC(N)=Nc1ccccc1` [1-Phenylbiguanide], the cell viability (compound concentration: 3 uM) is 102%. The same measure, in the same setting: to `C[C@H](Cc1ccc(O)c(O)c1)[C@@H](C)Cc1ccc(O)c(O)c1` belongs 113%. `COc1ccc2c(=O)cc(-c3ccc(O)cc3)oc2c1`: the cell viability under setting [1] came out at 80.8%. As for `NCCc1ccc(O)c(O)c1`, for the setting “compound concentration: 3 uM”, the cell viability amounted to 99.6%. Still for that read-out and setting: to `NCCc1ccc(O)c(O)c1` [Dopamine hydrochloride] belongs 104 ± 9.4%; to `CC1(C)O[C@@H]2C[C@H]3[C@@H]4C[C@H](F)C5=CC(=O)C=C[C@]5(C)[C@H]4[C@@H](O)C[C@]3(C)[C@]2(C(=O)CO)O1` [Flunisolide], 113%. Same read-out and setting: to `CC1(C)O[C@@H]2C[C@H]3[C@@H]4C[C@H](F)C5=CC(=O)C=C[C@]5(C)[C@H]4[C@@H](O)C[C@]3(C)[C@]2(C(=O)CO)O1` belongs 109%.

Consider `Cc1cc(C(=O)N/N=C/c2c(O)c(O)c(C(C)C)c3cc(C)c(-c4c(C)cc5c(C(C)C)c(O)c(O)c(/C=N/NC(=O)c6cc(C)[nH]n6)c5c4O)c(O)c23)n[nH]1`, for which the cell viability under setting [1] worked out at 94.6%.

Take `C[C@H](CS)C(=O)N1CCC[C@H]1C(=O)O` [Captopril]: for the setting “compound concentration: 3 uM”, the cell viability is 102 ± 7.6%. Same read-out and setting: to `C[C@H](CS)C(=O)N1CCC[C@H]1C(=O)O` belongs 102%. Regarding `CN(Cc1cc(Br)cc(Br)c1N)C1CCCCC1` [Bromhexine hydrochloride], the cell viability (compound concentration: 3 uM) is 131%. As for `CN(Cc1cc(Br)cc(Br)c1N)C1CCCCC1`, under “compound concentration: 3 uM”, the cell viability came out at 101%. The same measure, in the same setting: to `CN(Cc1cc(Br)cc(Br)c1N)C1CCCCC1` [Bromhexine] belongs 118%; to `NC(=O)c1ccccc1` [Benzamide], 104%. Regarding `COc1ccc2c(=O)cc(-c3ccccc3OC)oc2c1` [2',7-Dimethoxyflavone], under setting [1], the cell viability was found to be 96.2%. As to `O=C1NC(c2cccc([N+](=O)[O-])c2)=CCN1c1ccccc1O` [Icilin], the cell viability (compound concentration: 3 uM) stood at 97.9%.

As for `CC(=O)OCC(=O)[C@@]1(O)CC[C@H]2[C@@H]3CCC4=CC(=O)C=C[C@]4(C)[C@H]3[C@@H](O)C[C@@]21C` [prednisolone 21-acetate], the cell viability under setting [1] is 106%. On to `CC(=O)OCC(=O)[C@@]1(O)CC[C@H]2[C@@H]3CCC4=CC(=O)C=C[C@]4(C)[C@H]3[C@@H](O)C[C@@]21C`, for which, under “compound concentration: 3 uM”, the cell viability is 110%. Regarding `Nc1ccn([C@@H]2O[C@H](COP(=O)(O)O)[C@@H](O)[C@H]2O)c(=O)n1` [Cytidine 5'-monophosphate], under setting [1], the cell viability worked out at 91.6%. In the case of `C[C@]12CCC(=O)C=C1CC[C@@H]1[C@@H]2[C@@H](O)C[C@@]2(C)[C@H]1CC[C@]2(O)C(=O)COP(=O)(O)O`, where the note is “compound concentration: 3 uM”, the cell viability came to 110%. Still for that read-out and setting: to `Nc1ncnc2c1ncn2C1CCCC1` [9-cyclopentyladenine] belongs 110%. Still for that read-out and setting: to `CCCN(CC1CC1)c1nc(C)nc(Nc2c(Cl)cc(Cl)cc2Cl)c1Cl` belongs 106%.
